B1: ##CEBPZ (protein, UniProt Q03701 1-1054, looked up)
CCAAT/enhancer-binding …: MAAVKEPLEFHAKRPWRPEEAVEDPDEEDEDNTSEAENGFSLEEVLRLGGTKQDYLMLATLDENEEVIDGGKKGAIDDLQQGELEAFIQNLNLAKYTKASLVEEDEPAEKENSSKKEVKIPKINNKNTAESQRTSVNKVKNKNRPEPHSDENGSTTPKVKKDKQNIFEFFERQTLLLRPGGKWYDLEYSNEYSLKPQPQDVVSKYKTLAQKLYQHEINLFKSKTNSQKGASSTWMKAIVSSGTLGDRMAAMILLIQDDAVHTLQFVETLVNLVKKKGSKQQCLMALDTFKELLITDLLPDNRKLRIFSQRPFDKLEQLSSGNKDSRDRRLILWYFEHQLKHLVAEFVQVLETLSHDTLVTTKTRALTVAHELLCNKPEEEKALLVQVVNKLGDPQNRIATKASHLLETLLCKHPNMKGVVSGEVERLLFRSNISSKAQYYAICFLNQMALSHEESELANKLITVYFCFFRTCVKKKDVESKMLSALLTGVNRAYPYSQTGDDKVREQIDTLFKVLHIVNFNTSVQALMLLFQVMNSQQTISDRYYTALYRKMLDPGLMTCSKQAMFLNLVYKSLKADIVLRRVKAFVKRLLQVTCQQMPPFICGALYLVSEILKAKPGLRSQLDDHPESDDEENFIDANDDEDMEKFTDADKETEIVKKLETEETVPETDVETKKPEVASWVHFDNLKGGKQLNKYDPFSRNPLFCGAENTSLWELKKLSVHFHPSVALFAKTILQGNYIQYSGDPLQDFTLMRFLDRFVYRNPKPHKGKENTDSVVMQPKRKHFIKDIRHLPVNSKEFLAKEESQIPVDEVFFHRYYKKVAVKEKQKRDADEESIEDVDDEEFEELIDTFEDDNCFSSGKDDMDFAGNVKKRTKGAKDNTLDEDSEGSDDELGNLDDDEVSLGSMDDEEFAEVDEDGGTFMDVLDDESESVPELEVHSKVSTKKSKRKGTDDFDFAGSFQGPRKKKRNLNDSSLFVSAEEFGHLLDENMGSKFDNIGMNAMANKDNASLKQLRWEAERDDWLHNRDAKSIIKKKKHFKKKRIKTTQKTKKQRK
B2: NXN (protein, UniProt Q6DKJ4 2-435, looked up)
Nucleoredoxin: SGFLEELLGEKLVTGGGEEVDVHSLGARGISLLGLYFGCSLSAPCAQLSASLAAFYGRLRGDAAAGPGPGAGAGAAAEPEPRRRLEIVFVSSDQDQRQWQDFVRDMPWLALPYKEKHRKLKLWNKYRISNIPSLIFLDATTGKVVCRNGLLVIRDDPEGLEFPWGPKPFREVIAGPLLRNNGQSLESSSLEGSHVGVYFSAHWCPPCRSLTRVLVESYRKIKEAGQNFEIIFVSADRSEESFKQYFSEMPWLAVPYTDEARRSRLNRLYGIQGIPTLIMLDPQGEVITRQGRVEVLNDEDCREFPWHPKPVLELSDSNAAQLNEGPCLVLFVDSEDDGESEAAKQLIQPIAEKIIAKYKAKEEEAPLLFFVAGEDDMTDSLRDYTNLPEAAPLLTILDMSARAKYVMDVEEITPAIVEAFVNDFLAEKLKPEPI
B3: C6orf163 (protein, UniProt Q5TEZ5 1-329, looked up)
Uncharacterized protein …: MIRNSDYKNFVCCAVCNKIIPPAPFGKTFKRIHEYKPLKTRFYTHKDILDIGANILKKEEQFQEDILREHIAKAEAEVWAQANERQKQAVEKALEEANDRHKIEIQILKEEHQKDLQEVTAKTKTEMYQNMDDEMKREHLAAEQRMVHRIQRIMMECHREKVEAVEKARAEERHIAQEAIQAQKSKAVEEIVNTGVTVIKDEKTSVARLMREKEHEMSILYGIAQRQRQEEVQEVLQEAEKTHQATLGNMMDKLANTQGELLSIAKQLGIMTNWKDFLEEELQETRMAFQKYINYTFPKLSPGHADFILPERKKTPSNLVIKENKTTLD
B4: IKZF1 (protein, UniProt Q13422 1-519, looked up)
DNA-binding protein Ikaros: MDADEGQDMSQVSGKESPPVSDTPDEGDEPMPIPEDLSTTSGGQQSSKSDRVVASNVKVETQSDEENGRACEMNGEECAEDLRMLDASGEKMNGSHRDQGSSALSGVGGIRLPNGKLKCDICGIICIGPNVLMVHKRSHTGERPFQCNQCGASFTQKGNLLRHIKLHSGEKPFKCHLCNYACRRRDALTGHLRTHSVGKPHKCGYCGRSYKQRSSLEEHKERCHNYLESMGLPGTLYPVIKEETNHSEMAEDLCKIGSERSLVLDRLASNVAKRKSSMPQKFLGDKGLSDTPYDSSASYEKENEMMKSHVMDQAINNAINYLGAESLRPLVQTPPGGSEVVPVISPMYQLHKPLAEGTPRSNHSAQDSAVENLLLLSKAKLVPSEREASPSNSCQDSTDTESNNEEQRSGLIYLTNHIAPHARNGLSLKEEHRAYDLLRAASENSQDALRVVSTSGEQMKVYKCEHCRVLFLDHVMYTIHMGCHGFRDPFECNMCGYHSQDRYEFSSHITRGEHRFHMS
B5: VPS8 (protein, UniProt Q8N3P4 1-1428, looked up)
Vacuolar protein …: MENEPDHENVEQSLCAKTSEEELNKSFNLEASLSKFSYIDMDKELEFKNDLIDDKEFDIPQVDTPPTLESILNETDDEDESFILEDPTLLNIDTIDSHSYDTSSVASSDSGDRTNLKRKKKLPDSFSLHGSVMRHSLLKGISAQIVSAADKVDAGLPTAIAVSSLIAVGTSHGLALIFGKDQNQALRLCLGSTSVGGQYGAISALSINNDCSRLLCGFAKGQITMWDLASGKLLRSITDAHPPGTAILHIKFTDDPTLAICNDSGGSVFELTFKRVMGVRTCESRCLFSGSKGEVCCIEPLHSKPELKDHPITQFSLLAMASLTKILVIGLKPSLKVWMTFPYGRMDPSSVPLLAWHFVAVQNYVNPMLAFCRGDVVHFLLVKRDESGAIHVTKQKHLHLYYDLINFTWINSRTVVLLDSVEKLHVIDRQTQEELETVEISEVQLVYNSSHFKSLATGGNVSQALALVGEKACYQSISSYGGQIFYLGTKSVYVMMLRSWRERVDHLLKQDCLTEALALAWSFHEGKAKAVVGLSGDASKRKAIVADRMVEILFHYADRALKKCPDQGKIQVMEQHFQDMVPVIVDYCLLLQRKDLLFSQMYDKLSENSVAKGVFLECLEPYILSDKLVGITPQVMKDLIVHFQDKKLMENVEALIVHMDITSLDIQQVVLMCWENRLYDAMIYVYNRGMNEFISPMEKLFRVIAPPLNAGKTLTDEQVVMGNKLLVYISCCLAGRAYPLGDIPEDLVPLVKNQVFEFLIRLHSAEASPEEEIYPYIRTLLHFDTREFLNVLALTFEDFKNDKQAVEYQQRIVDILLKVMVENSDFTPSQVGCLFTFLARQLAKPDNTLFVNRTLFDQVLEFLCSPDDDSRHSERQQVLLELLQAGGIVQFEESRLIRMAEKAEFYQICEFMYEREHQYDKIIDCYLRDPLREEEVFNYIHNILSIPGHSAEEKQSVWQKAMDHIEELVSLKPCKAAELVATHFSGHIETVIKKLQNQVLLFKFLRSLLDPREGIHVNQELLQISPCITEQFIELLCQFNPTQVIETLQVLECYRLEETIQITQKYQLHEVTAYLLEKKGDIHGAFLIMLERLQSKLQEVTHQGENTKEDPSLKDVEDTMVETIALCQRNSHNLNQQQREALWFPLLEAMMAPQKLSSSAIPHLHSEALKSLTMQVLNSMAAFIALPSILQRILQDPVYGKGKLGEIQGLILGMLDTFNYEQTLLETTTSLLNQDLHWSLCNLRASVTRGLNPKQDYCSICLQQYKRRQEMADEIIVFSCGHLYHSFCLQNKECTVEFEGQTRWTCYKCSSSNKVGKLSENSSEIKKGRITPSQVKMSPSYHQSKGDPTAKKGTSEPVLDPQQIQAFDQLCRLYRGSSRLALLTELSQNRSSESYRPFSGSQSAPAFNSIFQNENFQLQLIPPPVTED
B6: ##MAP7D3 (protein, UniProt Q8IWC1 1-876, looked up)
MAP7 domain-containing …: MMADGAAAGAGGSPSLRELRARMVAAANEIAKERRKQDVVNRVATHSSNIRSTFKPVIDGSMLKNDIKQRLARERREEKRRQQDANKETQLLEKERKTKLQYEKQMEERQRKLKERKEKEEQRRIAAEEKRHQKDEAQKEKFTAILYRTLERRRLADDYQQKRWSWGGSAMANSESKTANKRSASTEKLEQGTSALIRQMPLSSAGLQNSVAKRKTDKERSSSLNRRDSNLHSSTDKEQAERKPRVTGVTNYVMQYVTVPLRKCTSDELRAVMFPMSTMKIPPQTKVEESPLEKVETPPKASVDAPPQVNVEVFCNTSMEASPKAGVGMAPEVSTDSFPVVSVDVSPVVSTYDSEMSMDASPELSIEALPKVDLETVPKVSIVASPEASLEAPPEVSLEALPEVSVEAAPEGSLEAPPKGSAEVAPKESVKGSPKESMEASPEAMVKASPKTSLEASMEASPKAKARDAPKKSEMDKQALIPIAKKRLSSYTECYKWSSSPENACGLPSPISTNRQIQKNCPPSPLPLISKQSPQTSFPYKIMPIQHTLSVQSASSTVKKKKETVSKTTNRCEALSQRHMIYEESGNKSTAGIMNAEAATKILTELRRLAREQREKEEEERQREEMQQRVIKKSKDMAKEAVGGQAEDHLKLKDGQQQNETKKKKGWLDQEDQEAPLQKGDAKIKAQEEADKRKKEHERIMLQNLQERLERKKRIEEIMKRTRKTDVNASKVTETSSHDIYEEAEADNEESDKDSLNEMFPSAILNGTGSPTKFKMPFNNAKKMTHKLVFLEDGTSQVRKEPKTYFNGDLKNFRQKSMKDTSIQEVVSRPSSKRMTSHTTKTRKADETNTTSRSSAQTKSEGFHDILPKSSDTFRQ

The molecules below were run on mSWI/SNF complexes (assay: mSWI/SNF complex purification with HA-tagged baits and mass spectrometry (peptide counts)). Conditions: 293_HA-BRD7 bait purification, mass spectrometry; total peptide count per identified protein.
Set-up: species or system human

Total, 1:
B1, B2, B3, B4, B5, B6

Same assay, conditions: 293_HA-BRD7 bait purification, mass spectrometry; unique peptide count per identified protein

Unique, 1:
B1, B2, B3, B4, B5, B6

From patent US12729225B2, “Non-canonical SWI/SNF complex and uses thereof” (Dana-Farber Cancer Institute, Inc., priority 2018, dated 2026)
